Counter-ions that a name gives are not always drawn. The list shows a part of the results. This data set is noisy: repeats of one test often differ as much as different tests do.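 Human U-2 OS cells stably expressing a GFP sensor with a nuclear import signal and classical export signal were transfected to produce PR50, a 50-repeat proline–arginine dipeptide from ALS/FTD gene C9ORF72. Nuclear-minus-cytoplasm GFP was scaled from DMSO (low) to PR-only (high), scored against plate test wells; strongly negative scores marked PR-reversing hits.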
These compounds were tested on U-2 OS NCT-C biosensor cells expressing PR50 (assay: Z-score of normalised NCT-C biosensor translocation index in PR50-expressing cells; higher = more nuclear biosensor (more disrupted nuclear export)). Details: 3 µM; 24 h.
In the case of COc1ccc(OC)c(C(O)C(C)N)c1 (stereo unspecified) [Methoxamine hydrochloride], the Z-score is reported as inactive: -0.79.
In the case of C[C@@]12C(=O)OC(=O)[C@]1(C)[C@H]1CC[C@@H]2O1 [Cantharidin], the Z-score is reported as inactive: 0.182.
With Cl[C@H]1[C@H](Cl)[C@@H](Cl)[C@@H](Cl)[C@H](Cl)[C@H]1Cl [Lindane] the Z-score was inactive: 0.101.
Cc1ccc2c(c1)C1(CCN(CCc3nc(-c4ccccc4)oc3C)CC1)OC(=O)N2 was tested, and the Z-score was inactive: 0.033.
In the case of NC(CP(=O)(O)O)C(=O)O (racemic) [(±)-2-Amino-3-  phosphono propionic acid], the Z-score is reported as inactive: 0.0518.
NC1CCc2cc(O)c(O)cc2C1 (stereo unspecified) [6,7-ADTN  hydrobromide] was tested, and the Z-score was inactive: -0.228.
N[C@@H]1C[C@H]1c1ccccc1.N[C@H]1C[C@@H]1c1ccccc1 [Tranylcypromine hemisulfate] was tested, and the Z-score was active: -2.2.
In the case of N[C@@H]1C[C@H]1c1ccccc1.N[C@H]1C[C@@H]1c1ccccc1 [Tranylcypromine Hemisulfate], the Z-score is reported as inactive: 0.032.
OCC1C(O)C(O)C2C(O)CCN12 (stereo unspecified) [Australine·HCl] was tested, and the Z-score was inactive: -0.637.
In the case of CN1C2CCC1CC(O)C2 (stereo unspecified) [Tropine], the Z-score is reported as inactive: -0.596.
C[N+]1(C)CCCC(OC(=O)C(O)(c2ccccc2)c2ccccc2)C1 (stereo unspecified) [Mepenzolate Bromide] was tested, and the Z-score was inactive: -0.928.
NCC1(CC(=O)O)CCCCC1 [Gabapentin] was tested, and the Z-score was inactive: -0.941.
In the case of NCC1(CC(=O)O)CCCCC1 [GABApentin], the Z-score is reported as inactive: -0.0674.
O=c1cccc2n1C[C@@H]1CNC[C@H]2C1 [(-)-Cytisine] was tested, and the Z-score was inactive: 0.868.
With CC(C)Oc1cccnc1N(C)C1CCN(Cc2ccccc2)CC1 the Z-score was inactive: -0.625.
CCN1C[C@]2(COC)CC[C@H](OC)[C@]34C5C[C@@H]6[C@@H](OC)C[C@@]7(OCO[C@@]7(C13)[C@@H](O)C24)C5[C@H]6OC (stereo partly specified) [Delcorine] was tested, and the Z-score was inactive: -0.51.
In the case of O=[N+]([O-])O[C@H]1CO[C@H]2[C@@H]1OC[C@H]2O[N+](=O)[O-] [Isosorbide Dinitrate], the Z-score is reported as inactive: 0.974.
In the case of O=C(CCCN1CCC2(CC1)C(=O)NCN2c1ccccc1)c1ccc(F)cc1 [Spiperone], the Z-score is reported as inactive: -0.61.
For CCCN(CCC)C1CCc2ccc(O)cc2C1 (racemic) [(±)-7-Hydroxy-DPAT hydrobromide], the Z-score was inactive: -0.537.
For Cc1ncsc1CCCl [Chlormethiazole HCl], the Z-score was inactive: 0.143.
CCC1(c2ccc(N)cc2)CCC(=O)NC1=O (racemic) [(±)-p-  Aminoglutethimide] was tested, and the Z-score was inactive: 0.115.
CCOC(=O)c1cncn1[C@H](C)c1ccccc1 [Etomidate] was tested, and the Z-score was inactive: 1.07.
For CCN1CCN(C(=O)Cc2ccc(Nc3ncc(F)c(Nc4ccc(C(=O)Nc5ccccc5Cl)cc4)n3)cc2)CC1 [Aurora-A Inhibitor I], the Z-score was inactive: 0.545.
For CN1CCc2cc3c(cc2C1C1OC(=O)c2c1ccc1c2OCO1)OCO3 (single isomer, unassigned; (+)) [(+)-Bicuculline], the Z-score was inactive: 0.235.
CC(O)(CS(=O)(=O)c1ccc(F)cc1)C(=O)Nc1ccc(C#N)c(C(F)(F)F)c1 (stereo unspecified) [Bicalutamide] was tested, and the Z-score was inactive: -0.381.
For CC(O)(CS(=O)(=O)c1ccc(F)cc1)C(=O)Nc1ccc(C#N)c(C(F)(F)F)c1 (stereo unspecified) [Bicalutamide (CDX)], the Z-score was inactive: 1.74.
In the case of CCC1(C2=NCCN2)Cc2ccccc2O1 (stereo unspecified) [Efaroxan hydrochloride], the Z-score is reported as inactive: -0.19.
In the case of C/C(=C/C=C/[C@@H](C)C(=O)O)[C@H]1CN[C@H](C(=O)O)[C@H]1CC(=O)O [Domoic acid], the Z-score is reported as inactive: -0.824.
With CC[C@@H](CO)NC(=O)[C@@H]1C=C2c3cccc4[nH]cc(c34)C[C@H]2N(C)C1 [Methylergonovine maleate salt] the Z-score was inactive: 0.372.
With CC[C@@H](CO)NC(=O)[C@@H]1C=C2c3cccc4[nH]cc(c34)C[C@H]2N(C)C1 [Methylergonovine Maleate] the Z-score was inactive: -0.24.
With CC[C@@H](CO)NC(=O)[C@@H]1C=C2c3cccc4[nH]cc(c34)C[C@H]2N(C)C1 [Methylergonovine maleate] the Z-score was inactive: 0.666.
In the case of COc1cc2c(cc1O)CCN[C@@H]2C [Salsoline], the Z-score is reported as inactive: -0.745.
In the case of O=C(O)c1nn(Cc2ccc(Cl)cc2Cl)c2ccccc12 [Lonidamine], the Z-score is reported as inactive: 0.678.
With O=c1[nH]oc2c1CCNC2 [THIP  hydrochloride] the Z-score was inactive: -0.279.
CC(=O)O[C@H]1C(=O)[C@@]2(C)[C@H]([C@H](OC(=O)c3ccccc3)[C@]3(O)C[C@H](O)C(C)=C1C3(C)C)[C@]1(OC(C)=O)CO[C@@H]1C[C@@H]2O [Baccatin III] was tested, and the Z-score was inactive: -0.505.
In the case of c1cncc([C@@H]2CCCCN2)c1 (racemic) [(±)-Anabasine], the Z-score is reported as inactive: -0.367.
In the case of NC(Cc1cc(O)c(O)cc1O)C(=O)O (racemic) [6-Hydroxy-DL- DOPA], the Z-score is reported as inactive: -0.314.
For CN1C[C@H](CO)C[C@@H]2c3cccc4[nH]cc(c34)C[C@H]21 [9,10-Dihydrolysergol], the Z-score was inactive: -1.25.
In the case of C[N+]1(C)[C@@H]2CC(OC(=O)[C@H](CO)c3ccccc3)C[C@H]1[C@@H]1O[C@@H]12 (single isomer, unassigned; (-)) [(-)-Scopolamine methyl nitrate], the Z-score is reported as inactive: -0.913.
With COc1ccc2c(c1O)-c1cccc3c1[C@@H](C2)N(C)CC3 [R(-)-Apocodeine hydrochloride] the Z-score was inactive: -0.99.
COC1=CC(=O)O[C@@H](/C=C/c2ccc3c(c2)OCO3)C1 [Methysticin] was tested, and the Z-score was inactive: -0.445.
For CC(N)C(O)c1ccc(O)c(O)c1 (single isomer, unassigned; (-)) [(-)-alpha-Methyl norepinephrine], the Z-score was inactive: -1.57.
With CC1C=CC=CCCC=CC=CC=CC=CC(OC2OC(C)C(O)C(N)C2O)CC2OC(O)(CC(O)C(O)CCC(O)CC(O)CC(O)CC(=O)OC(C)C(C)C1O)CC(O)C2C(=O)O (stereo unspecified) [Nystatin] the Z-score was inactive: -0.308.
In the case of CC[C@H](C)/C=C(C)/C=C/C1=CC2=C(Cl)C(=O)[C@](C)(OC(C)=O)C(=O)C2=CO1 [Sclerotiorin], the Z-score is reported as inactive: -0.195.
In the case of Cc1cc([C@@H]2CCCN2C)on1 [ABT-418 hydrochloride], the Z-score is reported as inactive: -0.477.
For CC[C@@H](CO)NC(=O)[C@@H]1C=C2c3cccc4c3c(cn4C)C[C@H]2N(C)C1 [Methysergide maleate], the Z-score was inactive: 0.159.
In the case of N#C[C@H](O[C@@H]1O[C@H](CO[C@@H]2O[C@H](CO)[C@@H](O)[C@H](O)[C@H]2O)[C@@H](O)[C@H](O)[C@H]1O)c1ccccc1 [Amygdalin], the Z-score is reported as inactive: -0.489.
In the case of CC(C)C1CNC(C(=O)O)C1CC(=O)O (stereo unspecified) [Dihydrokainic acid], the Z-score is reported as inactive: 0.0663.
For COc1cc2c(c(OC)c1OC)-c1ccc(OC)c(=O)cc1[C@@H](NC(C)=O)CC2 [Colchicine], the Z-score was inactive: 0.262.
For COc1cc2c(c3oc4cccc(O)c4c(=O)c13)[C@@H]1C=CO[C@@H]1O2 [Sterigmatocystin], the Z-score was inactive: -0.474.
In the case of COc1ccc(CC2NCCc3cc(OC)c(OC)cc32)cc1OC (stereo unspecified) [Tetrahydropapaverine·HCl], the Z-score is reported as inactive: -0.725.
c1ccc2c(c1)OCC(C1=NCCN1)O2 (stereo unspecified) [Idazoxan hydrochloride] was tested, and the Z-score was inactive: 0.342.
In the case of C[C@]12CC[C@@H](O)C[C@@H]1CC[C@@H]1[C@@H]2CC[C@]2(C)[C@@H](C(=O)CO)CC[C@@H]12 [3-alpha,21-Dihydroxy-5alpha-pregnan-20-one], the Z-score is reported as inactive: -0.543.
For CCCN(CCC)C1CCc2cccc(O)c2C1 (racemic) [(±)-8-Hydroxy- DPAT  hydrobromide], the Z-score was inactive: -0.388.
With CC1=C2C(=CO[C@H](C)[C@H]2C)C(O)=C(C(=O)O)C1=O [Citrinin] the Z-score was inactive: -0.468.
CC(C)c1cccc(C(C)C)c1O [Propofol] was tested, and the Z-score was inactive: -0.185.
With CC(=O)N[C@H]1CN2CC[C@H](O)[C@@H]2[C@@H](O)[C@@H]1O [6-Acetamido-6-deoxy-castanospermine] the Z-score was inactive: -0.399.
For CCCN1CCC[C@@H]2Cc3n[nH]cc3C[C@H]21 [(-)-Quinpirole hydrochloride], the Z-score was inactive: -0.499.
In the case of C[C@]1(C(=O)O)CCC[C@]2(C)c3cc(O)ccc3CC[C@@H]12 [Podocarpic acid], the Z-score is reported as inactive: -0.467.
CN1C[C@H](CNC(=O)OCc2ccccc2)C[C@@H]2c3cccc4c3c(cn4C)C[C@H]21 [Metergoline] was tested, and the Z-score was inactive: -0.0588.
O=[N+]([O-])c1ncc[nH]1 [Azomycin] was tested, and the Z-score was inactive: -0.27.
For OCc1cnc[nH]1 [4-Imidazole methanol HCl], the Z-score was inactive: 0.166.
COC1=CC(=O)O[C@@H](/C=C/c2ccccc2)C1 (racemic) [(±)-Kavain] was tested, and the Z-score was inactive: -0.877.
Oc1ccc2c3c1O[C@H]1[C@@H](O)CC[C@@]4(O)[C@@H](C2)N(CC2CCC2)CC[C@]314 [Nalbuphine·HCl] was tested, and the Z-score was inactive: 1.56.
O=C(O)CC[N+](=O)[O-] [3-Nitropropionic acid] was tested, and the Z-score was inactive: -0.859.
COC(=O)C[C@](O)(CCC(C)(C)O)C(=O)O[C@@H]1C(OC)=C[C@]23CCCN2CCc2cc4c(cc2[C@H]13)OCO4 [Harringtonine] was tested, and the Z-score was inactive: -1.03.

Reference: the supplement of paper PMC8616043
